This is one part of the list. This is a noisy data set.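 The cells are a human neuroglioma line carrying a green fluorescent autophagy reporter.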
Legend:
[1] = system: H4 GFP-LC3; experiment: cell viability (scaled to control) (fraction of control); higher = more viable cells
[2] = system: H4 GFP-LC3; experiment: ACBP immunofluorescence intensity (scaled to control) (AU (scaled)); higher = more intracellular ACBP/DBI

| Compound | cell viability ([1]; 6 h) | cell viability ([1]; 24 h) | ACBP immunofluorescence intensity ([2]; 6 h) | ACBP immunofluorescence intensity ([2]; 24 h) |
| --- | --- | --- | --- | --- |
| C[C@H](NC[C@H](O)CP(=O)(O)CC1CCCCC1)c1ccc(Cl)c(Cl)c1 (5 µM) | 0.924 | 1.07 | 0.939 | 0.471 |
| O=C(O)C1CCCN(CCC=C(c2ccccc2)c2ccccc2)C1 (centres undefined) (5 µM) | 0.967 | 1.09 | 0.905 | 0.77 |
| NC(N)=NCCC[C@H](NC(=O)[C@@H](N)Cc1ccc(O)cc1)C(=O)O (5 µM) | 1.13 | 1.08 | 0.843 | 0.657 |
| O=C1CC2(CCCC2)CC(=O)N1CCCCNCC1COc2ccccc2O1 (centres undefined) (5 µM) | 0.775 | 0.635 | 0.842 | 0.661 |
| CCOC(OCC)P(=O)(O)CCCNCc1ccc(Cl)c(Cl)c1 (5 µM) | 0.913 | 1.04 | 0.895 | 0.489 |
| NC1(C(=O)O)CC1 (5 µM) | 1.19 | 1.18 | 0.661 | 0.678 |
| CC[C@](N)(CCC(=O)O)C(=O)O (5 µM) | 0.884 | 1.04 | 0.998 | 0.83 |
| N=C(CC(O)COc1ccccc1-c1ccccc1)N1CCCCC1 (centres undefined) (5 µM) | 0.63 | 0.839 | 0.908 | 0.779 |
| OC(CN1CCN(c2cccc(Cl)c2)CC1)C(c1ccccc1)c1ccccc1 (centres undefined) (5 µM) | 0.715 | 0.623 | 0.999 | 0.908 |
| Cn1c(=O)c2nc(C3CCCC3)[nH]c2n(C)c1=O (5 µM) | 1.06 | 1.2 | 1 | 0.883 |
| CNCC(O)c1ccc(O)c(O)c1 (centres undefined) (5 µM) | 1.18 | 0.862 | 0.311 | 0.687 |
| C=CCc1ccccc1OCC(O)CNC(C)C (centres undefined) (5 µM) | 0.565 | 0.869 | 0.924 | 0.29 |
| COc1ccccc1N1CCN(CCCCNC(=O)c2ccc(-c3ccc(C(C)=O)cc3)cc2)CC1 (5 µM) | 0.862 | 1.15 | 0.919 | 0.839 |
| NC/C=C/C(=O)O (5 µM) | 0.906 | 1.05 | 0.952 | 0.744 |
| CC(C)C[C@H](NC(=O)[C@H](Cc1ccccc1)NC(=O)CNC(=O)CNC(=O)[C@@H](N)Cc1ccc(O)cc1)C(=O)N[C@@H](CCCNC(=N)N)C(=O)N[C@@H](CCCNC(=N)N)C(=O)N[C@@H](CCC(N)=O)C(=O)N[C@@H](Cc1ccccc1)C(=O)N[C@@H](CCCCN)C(=O)N[C@H](C(=O)N[C@H](C(=O)N[C@H](C(=O)O)[C@@H](C)O)C(C)C)C(C)C (5 µM) | 1.15 | 1.11 | 0.898 | 0.697 |
| COc1cc(N)c(Cl)cc1C(=O)OCCCN1CCCCC1 (5 µM) | 0.775 | 0.98 | 0.98 | 0.53 |

| Compound | cell viability ([1]; 6 h) | cell viability ([1]; 24 h) | ACBP immunofluorescence intensity ([2]; 6 h) | ACBP immunofluorescence intensity ([2]; 24 h) |
| --- | --- | --- | --- | --- |
| COc1ccccc1N1CCN(CC(O)COc2cccc3ccccc23)CC1 (centres undefined) (5 µM) | 0.926 | 1.06 | 0.844 | 0.48 |
| O=C1CC2(CCCC2)CC(=O)N1CCCCN1CCN(c2ncccn2)CC1 (5 µM) | 0.928 | 0.986 | 0.961 | 0.792 |
| N[C@@H](CCC(=O)O)C(=O)[O-].[Na+] (5 µM) | 1.13 | 0.997 | 0.493 | 0.818 |
| NC1CCN(c2cccc(Cl)n2)CC1 (5 µM) | 0.851 | 0.76 | 0.896 | 0.34 |
| C[C@@H](C[C@H](N)C(=O)O)C(=O)O (5 µM) | 1.06 | 1.16 | 0.964 | 0.695 |
| CN1CCCN(C(c2ccccc2)c2ccc(Cl)cc2)CC1 (centres undefined) (5 µM) | 0.99 | 1.17 | 0.864 | 0.77 |
| CC(C)NC[C@@H](O)COc1ccc(CC(N)=O)cc1 (5 µM) | 0.797 | 0.884 | 0.917 | 0.795 |
| O=C(O)C1=CCNCC1 (5 µM) | 0.874 | 0.995 | 0.996 | 0.94 |
| C=CCn1c(=O)c2c(nc(-c3ccc(S(=O)(=O)O)cc3)n2C)n(C)c1=O (5 µM) | 0.982 | 1.15 | 0.969 | 0.734 |
| CC(C)NC[C@H](O)COc1ccc(CC(N)=O)cc1 (5 µM) | 0.977 | 0.927 | 0.873 | 0.519 |
| CC(C)[N+]1(C)[C@@H]2CC[C@H]1C[C@@H](OC(=O)C(CO)c1ccccc1)C2 (some centres undefined) (5 µM) | 0.923 | 1.13 | 0.88 | 0.509 |
| NC(N)=NC(N)=Nc1ccccc1 (5 µM) | 0.787 | 0.905 | 0.919 | 0.56 |
| CCC(NC(C)C)C(O)c1ccc(O)c2[nH]c(=O)ccc12 (centres undefined) (5 µM) | 0.914 | 0.803 | 0.728 | 0.391 |
| N=C(N)S/C=C\C(=O)O (5 µM) | 0.927 | 0.938 | 0.875 | 0.857 |
| CN1CCN(C2=Nc3ccccc3Sc3ccc(Cl)cc32)CC1 (5 µM) | 0.757 | 0.936 | 0.838 | 0.48 |

For convenience, part of the list above.

| Compound | cell viability ([1]; 6 h) | cell viability ([1]; 24 h) | ACBP immunofluorescence intensity ([2]; 6 h) | ACBP immunofluorescence intensity ([2]; 24 h) |
| --- | --- | --- | --- | --- |
| CCC(NC(C)C)C(O)c1ccc(O)c2[nH]c(=O)ccc12 (centres undefined) (5 µM) | 0.914 | 0.803 | 0.728 | 0.391 |
| N=C(N)S/C=C\C(=O)O (5 µM) | 0.927 | 0.938 | 0.875 | 0.857 |
